# Test results: patent US20210290676A1, “IMPROVING THE EFFICACY AND SAFETY OF ADOPTIVE CELLULAR THERAPIES” (University of Southern California, priority 2018, published 2021)
# Some of these results come from one statement about several compounds together. At least one compound was matched to its structure with a doubt left.
# Test system: CD8+CD45RA+CCR7+CD62L+ T cells
# Assay: Flow cytometry for CD8, CD45RA, CCR7 and CD62L on inhibitor-treated T cells
# Assay type: cell-based, human
# Settings: cultured 14 days, untreated sample 56.3%
# Protocol: DAY 0: Blood was obtained from unidentified donor. After RBC lysis, PBMC were collected using Ficoll-Hypaque separation. […] T cells were cultured in three different conditions: • 1. XVIVO 15 medium (Lonza) with IL2 50 IU/ml, CD3 antibody (30 ng/ml) and CD28 antibody (30 ng/ml). • 2. XVIVO 15 medium (Lonza) with CD3 antibody (30 ng/ml) and CD28 antibody (30 ng/ml). • 3. XVIVO 15 medium (Lonza) with IL2 50 IU/ml DAY 1: Cells were plated in a 6-well plate at a density of 1 million cells in 2 ml/of media (as described above) and treated with different inhibitors
# (§1) A second aliquot of the cells cultured for 13 days with all the treatments listed above (1-21) was washed with PBS+1% FBS, stained with CD8-PerCP, CD45RA-FITC, CCR7-PE and CD62L-APC (5% Y/100 μl/sample for each of 4 antibodies) at 4° C. for 1 h, washed twice with PBS+100 FBS and analyzed on flow cytometer to check if these drugs are enriching T stem cells showing surface expression of CD8+CD45RA+CCR7+CD62L+.
# Day 0: Blood was obtained from unidentified donor. After RBC lysis, PBMC were collected using Ficoll-Hypaque separation. 200 million T cells were isolated from PBMCs using CD3 microbeads. T cells were cultured overnight in XVIVO 15 medium (Lonza) with IL2 (50 IU/ml), 30 ng/ml of CD3 and CD28 antibodies
# Day 1: Cells were plated in 24-well plates at a density of 0.3 million cells/ml in each well and treated with different drugs.
# On day 7, culture medium was replaced with fresh medium with fresh drugs.
# On day 13, culture medium was replaced with fresh medium and fresh drugs. Half of the cells were transferred to 6-well plates.
# as §1, with “14” for “13”, “above” for “above (1-21)”, “(5 ul/100 ul/sample” for “(5% Y/100 μl/sample”, “PBS+1%” for “PBS+100”, “enriching for” for “enriching”, “T” for “T stem”
SMILES,% of CD8+/CD45RA+/CCR7+/CD62L+ cells (100 nM),% of CD8+/CD45RA+/CCR7+/CD62L+ cells (500 nM),% of CD8+/CD45RA+/CCR7+/CD62L+ cells (10 nM)
COc1cc(C)[nH]c(=O)c1CNC(=O)c1c(C)n([C@H](C)C2CCOCC2)c2ccccc12 [CPI360],> 70%,> 70%,–
O=C1CN=C(c2ccc[nH]2)c2cc(Cl)ccc2N1 [R05335],–,> 70%,–
COc1cc2c(NC3CCN(C(C)C)CC3)nc(N3CCC(F)(F)CC3)nc2cc1OCCCN1CCCC1 [UNC0642],> 70%,–,> 70%
